# Reference: PubChem BioAssay (NCATS)
# Inconclusive results, whose numbers are uncertain, are shown with a selection of clear calls. Where the call is inconclusive, the potency comes from a doubtful curve fit. The source made the active and inactive calls. Calls come from the whole dose curve; as a rule, active = well fitted cell-killing curve with a large enough effect; inconclusive = small, poorly fitted or top-dose-only effect, or effect the other way; inactive = no such curve, though single readings can be large or run the other way.
# Assay: Quantitative High-Throughput drug screen in 47 multiple myeloma cell lines against the NCATS MIPE library collection: EJM_DSMZ cell viability assay (AID 1918926; note: nearly all actives have a fitted effect of over 30% in size)
# Settings: EJM myeloma cell viability, CellTiter-Glo ATP, 48 h; series mostly up to 45.8 µM
# Summary of the method: (§1)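 We plated 500 myeloma cells per well, pinned in MIPE 4.0 compounds, and incubated for 48 hours at 37C. ATP was then quantified with CellTiter-Glo, with DMSO and media-only wells defining 100% and 0%.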
# Potency is the fitted concentration of half-maximal effect.
row,SMILES,Potency
1,CC[C@H](C)C(=O)O[C@H]1C[C@@H](C)C=C2C=C[C@H](C)[C@H](CC[C@@H]3C[C@@H](O)CC(=O)O3)[C@H]21,inactive
2,CN1CCN(c2c(F)cc3c(=O)c(C(=O)O)cn(CCF)c3c2F)CC1,inactive
3,CCc1nc(-c2cccc(C)c2)c(-c2ccnc(NC(=O)c3ccccc3)c2)s1,active: 16600 nM
4,O=C(NCCS(=O)(=O)c1ccc(C(F)(F)F)cn1)c1ccc(Cl)cc1,inactive
5,CN(C)CCCC1(c2ccc(F)cc2)OCc2cc(C#N)ccc21 (configuration not stated),"inconclusive: 11800 nM [cytotoxic, partial curve, poor fit]"
6,CCCc1nc(C(C)(C)O)c(C(=O)O)n1Cc1ccc(-c2ccccc2-c2nn[nH]n2)cc1,"inconclusive: 187 nM [cytotoxic, partial curve, poor fit]"
7,CN(C)c1ccccc1CN1CCCN(Cc2ccccc2N(C)C)C1c1ccncc1,"inconclusive: 1.2 nM [cytotoxic, full curve, poor fit]"
8,CCN(CCO)CCCOc1ccc2c(Nc3cc(CC(=O)Nc4cccc(F)c4)[nH]n3)ncnc2c1,inactive

# Exported tab-delimited: 4 of the compounds above
row	SMILES	Potency
3	CCc1nc(-c2cccc(C)c2)c(-c2ccnc(NC(=O)c3ccccc3)c2)s1	active: 16600 nM
4	O=C(NCCS(=O)(=O)c1ccc(C(F)(F)F)cn1)c1ccc(Cl)cc1	inactive
5	CN(C)CCCC1(c2ccc(F)cc2)OCc2cc(C#N)ccc21 (configuration not stated)	inconclusive: 11800 nM [cytotoxic, partial curve, poor fit]
6	CCCc1nc(C(C)(C)O)c(C(=O)O)n1Cc1ccc(-c2ccccc2-c2nn[nH]n2)cc1	inconclusive: 187 nM [cytotoxic, partial curve, poor fit]

# Assay: Quantitative High-Throughput drug screen in 47 multiple myeloma cell lines against the NCATS MIPE library collection: AMO1_DSMZ cell viability assay (AID 1918927; note: nearly all actives have a fitted effect of over 30% in size)
# Settings: AMO1 myeloma cells viability, CellTiter-Glo ATP luminescence, 48 h; series mostly up to 45.8 µM
# Summary of the method: as §1
row,SMILES,Potency
1,Clc1ccc(C2(c3ccc(-c4cn[nH]c4)cc3)CCNCC2)cc1,"inconclusive: 14800 nM [cytotoxic, partial curve]"
2,CSc1cccc(Nc2ncc3cc(-c4c(Cl)cccc4Cl)c(=O)n(C)c3n2)c1,"inconclusive: 66.2 nM [cytotoxic, full curve, poor fit]"
3,COc1nc(C)cnc1NS(=O)(=O)c1cccnc1-c1ccc(-c2nnco2)cc1,inactive
4,OC[C@H](Cc1ccccc1)Nc1nc(Oc2ccc3c(c2)CCC3)nc2c1ncn2Cc1ccc(-c2ccccc2)cc1,"inconclusive: 4690 nM [cytotoxic, full curve]"
5,Nc1nc(N)nc(-c2cc(Cl)ccc2Cl)n1,"inconclusive: 148 nM [cytotoxic, full curve, poor fit]"
6,CC(C)(S)[C@@H](N)C(=O)O,inactive
7,CNC(=O)c1ccc(N2C(=S)N(c3ccc(C#N)c(C(F)(F)F)c3)C(=O)C2(C)C)cc1F,"inconclusive: 13200 nM [cytotoxic, partial curve]"
8,c1cc(N[C@@H]2CCNC2)nc(-c2cnc3ccc(-c4cn[nH]c4)cn23)c1,"inconclusive: 26400 nM [cytotoxic, single point]"
9,COc1ccc2nc(S(=O)Cc3ncc(C)c(OC)c3C)[nH]c2c1 (configuration not stated),"inconclusive: 16600 nM [cytotoxic, partial curve, poor fit]"
10,COC(=O)[C@H](CCCN=C(N)N)NS(=O)(=O)c1ccc(C)cc1,inactive
11,CCCCCCCCCCCCCCCC(=O)O[C@H]1[C@@H](O)[C@@H](O)[C@@H]([C@H](NC(=O)[C@@H]2C[C@@H](CCC)CN2C)[C@H](C)Cl)O[C@@H]1SC,inactive
12,CCOc1cc2ncc(C#N)c(Nc3ccc(F)c(Cl)c3)c2cc1NC(=O)C=CCN(C)C,"inconclusive: 332 nM [cytotoxic, full curve, poor fit]"
13,O=C(NCCCCN1CCOCC1)c1cc2ccccc2o1,"inconclusive: 5.9 nM [cytotoxic, full curve, poor fit]"
14,O=S(=O)(O)CCS,"inconclusive: 1180 nM [cytotoxic, full curve, poor fit]"
15,CC[C@H]1OC(=O)[C@H](C)[C@@H](O[C@H]2C[C@@](C)(OC)[C@@H](O)[C@H](C)O2)[C@H](C)[C@@H](O[C@@H]2O[C@@H](C)C[C@H](N(C)C)[C@@H]2O)[C@](C)(O)C[C@@H](C)C(=O)[C@H](C)[C@@H](O)[C@]1(C)O,inactive
16,COc1ccc(CCN2CCN(CCCc3ccccc3)CC2)cc1OC,"inconclusive: 23500 nM [cytotoxic, single point]"
17,O=[N+]([O-])c1cn2c(n1)OC[C@@H](OCc1ccc(OC(F)(F)F)cc1)C2,"inconclusive: 83.3 nM [cytotoxic, full curve, poor fit]"

# Assay: Quantitative High-Throughput drug screen in 47 multiple myeloma cell lines against the NCATS MIPE library collection: ARP1_JJKsccF8 cell viability assay (AID 1918928; note: nearly all actives have a fitted effect of over 40% in size)
# Settings: ARP1 myeloma cells viability, CellTiter-Glo ATP, 48 h; viability: at 45.8 µM (top of the series)
# Summary of the method: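 Viability screen: myeloma cells (500/well) incubated 48 h at 37 °C, humidified 5% CO2, with pinned library compounds; CellTiter-Glo added, luminescence read; DMSO wells set 100%, medium-only wells 0%.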
row,SMILES,Potency
1,CON=C(C(=O)N[C@@H]1C(=O)N2C(C(=O)O)=C(CSC(=O)c3ccco3)CS[C@H]12)c1csc(N)n1,"inconclusive: 235 nM [rising, full curve, poor fit]"
2,O=C(c1ccc(F)cc1)C1CCN(CCn2c(=O)[nH]c3ccccc3c2=O)CC1,inactive
3,COc1ccc(-c2ccc3cc(C(=O)O)ccc3c2)cc1C12CC3CC(CC(C3)C1)C2,inactive
4,COc1nc(C)cnc1NS(=O)(=O)c1cccnc1-c1ccc(-c2nnco2)cc1,"inconclusive: 18700 nM [cytotoxic, partial curve, poor fit]"
5,Cc1nnc(C(=O)NC(C)(C)c2nc(C(=O)NCc3ccc(F)cc3)c(O)c(=O)n2C)o1,inactive
6,Nc1nc(N)nc(-c2cc(Cl)ccc2Cl)n1,inactive
7,CC(C)(S)[C@@H](N)C(=O)O,inactive
8,CNC(=O)c1ccc(N2C(=S)N(c3ccc(C#N)c(C(F)(F)F)c3)C(=O)C2(C)C)cc1F,inactive
9,c1cc(N[C@@H]2CCNC2)nc(-c2cnc3ccc(-c4cn[nH]c4)cn23)c1,"inconclusive: 37200 nM [cytotoxic, partial curve, poor fit]"
10,COc1ccc(CC2c3cc(OC)c(OC)cc3CC[N+]2(C)CCC(=O)OCCCCCOC(=O)CC[N+]2(C)CCc3cc(OC)c(OC)cc3C2Cc2ccc(OC)c(OC)c2)cc1OC (configuration not stated),inconclusive: 0.2 nM
11,COc1ccc2nc(S(=O)Cc3ncc(C)c(OC)c3C)[nH]c2c1 (configuration not stated),inactive
12,Cn1c(CNc2ccc(C(=N)N)cc2)nc2cc(C(=O)N(CCC(=O)O)c3ccccn3)ccc21,inactive
13,O=C(O)c1ccc(O)c2ncc(N3CCOCC3)cc12,"inconclusive: 296 nM [cytotoxic, full curve, poor fit]"
14,CC[C@H](CC#N)OC(=O)N[C@@H](C)c1cccc(NC(=O)Nc2ccc(-c3cnco3)c(OC)c2)c1,"inconclusive: 743 nM [cytotoxic, full curve]"
15,CCCCCCCCCCCCCCCC(=O)O[C@H]1[C@@H](O)[C@@H](O)[C@@H]([C@H](NC(=O)[C@@H]2C[C@@H](CCC)CN2C)[C@H](C)Cl)O[C@@H]1SC,inactive
16,Nc1ccc(S(=O)(=O)Nc2ccccn2)cc1,inactive
17,O=C(NCCCCN1CCOCC1)c1cc2ccccc2o1,inactive
18,C[C@@H](NC(=O)c1ncnc(N)c1Cl)c1ncc(C(=O)Nc2cc(C(F)(F)F)c(Cl)cn2)s1,"inconclusive: 4690 nM [cytotoxic, full curve]"
19,O=[N+]([O-])c1cn2c(n1)OC[C@@H](OCc1ccc(OC(F)(F)F)cc1)C2,inactive
20,OC[C@@H](O)[C@@H](O)[C@H](O)[C@@H](O)CO,inactive
21,NC(=NCc1ccccc1)NC(=O)c1nc(Cl)c(N)nc1N,inactive
22,Fc1ccc(C(c2ccc(F)cc2)N2CCN(CC=Cc3ccccc3)CC2)cc1,"inconclusive: 11.8 nM [cytotoxic, full curve, poor fit]"
